Results are given in words; binding and its absence hold for the method and conditions named. In cells and extracts the contact can be indirect. A yes stands for co-enrichment or nearness to the bait. Other partners may have been found. Where a sequence is shown, tags or fusion partners need not be part of it.
Molecular target: T1, FLAG-tagged NOD1 overexpressed in HEK293T cells (human) (UniProt Q9Y239)
T1 sequence: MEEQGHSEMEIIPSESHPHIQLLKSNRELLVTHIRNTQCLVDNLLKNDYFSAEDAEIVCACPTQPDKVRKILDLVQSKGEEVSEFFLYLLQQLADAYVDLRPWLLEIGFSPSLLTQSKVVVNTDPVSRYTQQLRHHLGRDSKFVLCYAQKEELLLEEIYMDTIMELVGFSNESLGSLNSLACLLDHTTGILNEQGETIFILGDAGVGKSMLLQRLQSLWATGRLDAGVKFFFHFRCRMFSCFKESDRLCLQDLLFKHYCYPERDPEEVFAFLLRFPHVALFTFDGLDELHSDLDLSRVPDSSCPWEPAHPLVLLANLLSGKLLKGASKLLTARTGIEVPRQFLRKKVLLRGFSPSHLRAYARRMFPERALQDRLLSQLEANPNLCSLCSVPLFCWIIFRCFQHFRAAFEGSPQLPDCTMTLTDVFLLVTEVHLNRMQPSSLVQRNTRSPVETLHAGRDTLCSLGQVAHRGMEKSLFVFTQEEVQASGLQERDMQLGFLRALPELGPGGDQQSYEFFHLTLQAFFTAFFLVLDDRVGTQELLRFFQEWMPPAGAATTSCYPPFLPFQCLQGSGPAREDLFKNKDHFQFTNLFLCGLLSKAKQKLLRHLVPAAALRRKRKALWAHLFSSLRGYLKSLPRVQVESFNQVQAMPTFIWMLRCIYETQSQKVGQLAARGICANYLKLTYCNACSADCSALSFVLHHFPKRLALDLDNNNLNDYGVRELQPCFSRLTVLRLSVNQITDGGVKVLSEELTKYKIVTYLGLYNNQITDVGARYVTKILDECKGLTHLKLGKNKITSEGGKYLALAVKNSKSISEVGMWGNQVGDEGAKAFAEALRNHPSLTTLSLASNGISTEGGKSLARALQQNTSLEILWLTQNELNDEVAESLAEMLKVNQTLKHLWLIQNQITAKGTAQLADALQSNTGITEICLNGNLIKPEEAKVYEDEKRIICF
Test: affinity purification with mass spectrometry; FLAG-tagged NOD1 or empty vector overexpressed in HEK293T, immunoprecipitation from whole cell lysates, LC/MS; cells pretreated with MG132 (10 umol/L, 2 h); two duplicates

binding: binds
B1: cyclin G-associated kinase (GAK), endogenous in HEK293T cells (enzyme, UniProt O14976 1-1311)
chain: MSLLQSALDFLAGPGSLGGASGRDQSDFVGQTVELGELRLRVRRVLAEGGFAFVYEAQDVGSGREYALKRLLSNEEEKNRAIIQEVCFMKKLSGHPNIVQFCSAASIGKEESDTGQAEFLLLTELCKGQLVEFLKKMESRGPLSCDTVLKIFYQTCRAVQHMHRQKPPIIHRDLKVENLLLSNQGTIKLCDFGSATTISHYPDYSWSAQRRALVEEEITRNTTPMYRTPEIIDLYSNFPIGEKQDIWALGCILYLLCFRQHPFEDGAKLRIVNGKYSIPPHDTQYTVFHSLIRAMLQVNPEERLSIAEVVHQLQEIAAARNVNPKSPITELLEQNGGYGSATLSRGPPPPVGPAGSGYSGGLALAEYDQPYGGFLDILRGGTERLFTNLKDTSSKVIQSVANYAKGDLDISYITSRIAVMSFPAEGVESALKNNIEDVRLFLDSKHPGHYAVYNLSPRTYRPSRFHNRVSECGWAARRAPHLHTLYNICRNMHAWLRQDHKNVCVVHCMDGRAASAVAVCSFLCFCRLFSTAEAAVYMFSMKRCPPGIWPSHKRYIEYMCDMVAEEPITPHSKPILVRAVVMTPVPLFSKQRSGCRPFCEVYVGDERVASTSQEYDKMRDFKIEDGKAVIPLGVTVQGDVLIVIYHARSTLGGRLQAKMASMKMFQIQFHTGFVPRNATTVKFAKYDLDACDIQEKYPDLFQVNLEVEVEPRDRPSREAPPWENSSMRGLNPKILFSSREEQQDILSKFGKPELPRQPGSTAQYDAGAGSPEAEPTDSDSPPSSSADASRFLHTLDWQEEKEAETGAENASSKESESALMEDRDESEVSDEGGSPISSEGQEPRADPEPPGLAAGLVQQDLVFEVETPAVLPEPVPQEDGVDLLGLHSEVGAGPAVPPQACKAPSSNTDLLSCLLGPPEAASQGPPEDLLSEDPLLLASPAPPLSVQSTPRGGPPAAADPFGPLLPSSGNNSQPCSNPDLFGEFLNSDSVTVPPSFPSAHSAPPPSCSADFLHLGDLPGEPSKMTASSSNPDLLGGWAAWTETAASAVAPTPATEGPLFSPGGQPAPCGSQASWTKSQNPDPFADLGDLSSGLQGSPAGFPPGGFIPKTATTPKGSSSWQTSRPPAQGASWPPQAKPPPKACTQPRPNYASNFSVIGAREERGVRAPSFAQKPKVSENDFEDLLSNQGFSSRSDKKGPKTIAEMRKQDLAKDTDPLKLKLLDWIEGKERNIRALLSTLHTVLWDGESRWTPVGMADLVAPEQVKKHYRRAVLAVHPDKAAGQPYEQHAKMIFMELNDAWSEFENQGSRPLF

From PMC11131025
